Experimental data: US10583084B2, “Liposomal formulations for delivery of nucleic acids” (RAMOT AT TEL-AVIV UNIVERSITY LTD., priority 2014, dated 2020)
Some entries share one result that the patent states for a list of compounds.

Tested on: U87MG cells
Test: XTT survival assay after chemotherapy treatment
Format: cell-based, human
Details: highest dose of 100 μM, static culturing, 48 h

SMILES	cell survival [%]
O=NN(CCCl)C(=O)NCCCl [BCNU, 1,3-bis(2-chloroethyl)-1-nitrosourea]	> 50
COc1cccc2c1C(=O)c1c(O)c3c(c(O)c1C2=O)C[C@@](O)(C(=O)CO)C[C@@H]3O[C@H]1C[C@H](N)[C@H](O)[C@H](C)O1 [DOX, doxorubicin]	> 50
